Assay results published in US4407746A (G. D. Searle & Co., priority 1981, dated 1983).

Test: general procedure: solution-phase peptide synthesis; isobutyl chloroformate / N-methylmorpholine (mixed anhydride)
Conditions: late stage modification step

“Tyr-D-Met-Gly-Phe-DL-cis-3-aminocyclohexanecarboxylic Acid Methyl Ester HCl” showed a step yield of 91%.
